These results are taken from patent publication US10620188B2, “Using impedance-based cell response profiling to identify putative inhibitors for oncogene addicted targets or pathways” (ACEA Biosciences, Inc., priority 2002, dated 2020).

In one assay the test system is H1993. In words: Impedance-based TCRP of Met addicted H1993 cells (xCelligence). The class given is cell-based, human. The following applies: increasing concentrations.
For another assay, the system named is C6. In words: Impedance-based TCRP of PDGFR addicted C6 glioma cells. In kind it is cell-based, rat.
The next assay concerns RBL-2H3 PDGFRβ. In words: Impedance response of engineered RBL-2H3 PDGFRβ cells to PDGF stimulation and PDGFR inhibition. In kind it is cell-based. To be noted: Rattus norvegicus, inhibitor 1 hour, then PDGF BB (10 ng/ml), peak normalized CI, read-out: IC50 acting on PDGFR in the engineered cell line.

Take `Cc1ccc(NC(=O)c2ccc(CN3CCN(C)CC3)cc2)cc1Nc1nccc(-c2cccnc2)n1` [Imatinib]: the “TCRP (Cell Index response)” value was “None of these inhibitors induced a TCRP similar to PF2341006” with H1993; “dose-dependent short-term increase (to a various degree) and long-term decrease in Cell Index” in the assay on C6 (increasing concentrations). Further, the IC50 in the assay on C6 (Rattus norvegicus, Long-term (96 hours post compound treatment) CI) was determined as 275 nM; in the assay on RBL-2H3 PDGFRβ it was 135 nM.

The IC50 is the concentration that gives 50% inhibition.
